From patent US20230265099A1, “SIK INHIBITORS AND METHODS OF USE THEREOF” (SOLTEGO, INC., priority 2020, published 2023)
For at least one compound, name, drawing or mass did not settle the structure.

Legend:
[1] = test system: reconstituted melanized human epidermis (NHEKs and NHEMs-MP melanocytes); experiment: Melanin content from Fontana-Masson stained sections of reconstituted melanized human epidermis; assay type: cell-based; conditions: positive controls: forskolin 3.33 μM, IBMX 150 μM; vs DMSO 0.05%
Method: Based on the results of dose determination studies, 0.3 μg/ml, 0.01 μg/ml and 0.0033 μg/ml doses of SLT-008 were selected for further application in a culture medium of reconstituted melanized human epidermis. The pigmentation effect studies were carried out on epidermis reconstituted with NHEKs (Normal human epidermal keratinocytes, Lonza 00192906) isolated from foreskin of 3 neonatal Caucasian donors and NHEMs-MP melanocytes.
The tissues were cultured at the air-liquid interface in Epilife medium (Fisher Scientific, MEPI500CA) containing specific supplements (with among others Human Keratinocytes Growth Factors, Fisher Scientific S0015 or S001K) and antibiotics (Gentamycin, Fisher Scientific, 15710049). They were maintained in a humid atmosphere at 37° C. with 5% CO2.
Melanocytes were co-cultured with reconstructed epidermis and cultivated at the air-liquid interface during 14 days in culture medium in a humid atmosphere at 37° C. with CO2 5%. […]
At the end of treatments (day 14), a morphology analysis was performed. The epidermis pigmentation was quantified after solvable extraction and quantified through Fontana Masson staining of histologic sections. […]
For the melanin quantification, 3 pictures of each epidermis were taken and analyzed by using the Leica QWin3 software. […]
Melanin content was determined from Fontana-Masson stained sections (% relative to DMSO 0.005%). […]

reconstructed epidermis = experiment: Melanin content by chemical (solvable) extraction of reconstructed epidermis; assay type: cell-based, human; conditions: positive control, vs solvent control DMSO at 0.03%
Method: Using similar methods described previously in this Example, the experiments were repeated. At the end of these treatments, tissues (n=3) were removed from their inserts and immerged in a solvable extraction solution (Perkin Elmer-NJTSRN8010060) and heated at 80° C. for 1 h. The optical density of the supernatants was measured at 490 nm with a spectrophotometer (GloMax-Promega) and the melanin content was determined by comparison with a standard curve of synthetic melanin (Sigma-M8631)

**Q.** What does the source list for `C=C[C@@]1(C)CC(=O)[C@]2(O)[C@@]3(C)[C@@H](O)CCC(C)(C)[C@@H]3[C@H](O)[C@H](OC(C)=O)[C@@]2(C)O1` [forskolin, reference compound]?
**A.** pigmentation (Fontana-Masson) [1]: increased; production of melanin within the epidermis (chemical extraction) (reconstructed epidermis): significantly increased
